Results are given in words; binding and its absence hold for the method and conditions named. In cells and extracts the contact can be indirect. Some entries that bind do so weakly or less than the wild type. Sequences can lack the tags named with a protein.

We go through 1 molecule from PMC10864336.

This assay deals with T1, 3×FLAG-Tsc13 (WT) (S. cerevisiae) (UniProt Q99190).
T1 sequence: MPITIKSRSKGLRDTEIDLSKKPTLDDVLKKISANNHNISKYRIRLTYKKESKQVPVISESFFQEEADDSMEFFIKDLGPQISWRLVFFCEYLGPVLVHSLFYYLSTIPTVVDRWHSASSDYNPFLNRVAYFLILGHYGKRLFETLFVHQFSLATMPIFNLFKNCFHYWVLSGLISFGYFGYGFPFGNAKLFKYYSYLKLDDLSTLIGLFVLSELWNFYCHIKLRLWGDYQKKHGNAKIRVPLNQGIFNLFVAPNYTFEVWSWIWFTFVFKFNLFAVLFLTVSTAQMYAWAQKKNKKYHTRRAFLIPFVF
In words: co-IP; membrane fractions of yeast cells solubilized with 1% Triton X-100; immunoprecipitation with anti-FLAG M2 affinity gel at 4 °C overnight (50 mM Hepes/NaOH pH 7.5, 0.2 M sorbitol, 150 mM NaCl, 1 mM DTT); washed with buffer containing 0.1% Triton X-100; immunoblotting with anti-FLAG and …; band intensity of the immunoprecipitate relative to the input. (In general: Immunoblotting shows a protein as a band on a membrane.)

B1: Elo2-6×HA (enzyme, UniProt P25358 1-347)
chain: MNSLVTQYAAPLFERYPQLHDYLPTLERPFFNISLWEHFDDVVTRVTNGRFVPSEFQFIAGELPLSTLPPVLYAITAYYVIIFGGRFLLSKSKPFKLNGLFQLHNLVLTSLSLTLLLLMVEQLVPIIVQHGLYFAICNIGAWTQPLVTLYYMNYIVKFIEFIDTFFLVLKHKKLTFLHTYHHGATALLCYTQLMGTTSISWVPISLNLGVHVVMYWYYFLAARGIRVWWKEWVTRFQIIQFVLDIGFIYFAVYQKAVHLYFPILPHCGDCVGSTTATFAGCAIISSYLVLFISFYINVYKRKGTKTSRVVKRAHGGVAAKVNEYVNVDLKNVPTPSPSPKPQHRRKR
With B1, the binding entry is reported as “binds”.
